# Source: PubChem BioAssay AID504744 (Drosophila RNAi Screening Center, 2011)
# Aim: 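Find genes whose loss alters insulin-driven dAkt phosphorylation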 (primary screen)
# System: Drosophila Kc167 cells
# Reagents: long dsRNA against Drosophila genes, 250 ng dsRNA per well of a 384-well plate
# Time to read-out: 3 days of knock-down, then overnight serum-free starvation before stimulation
# Treatment: bovine insulin at 387 nM for 10 minutes after 12 h without serum
# Read-out: 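In-cell antibody fluorescence for phospho-dAkt in each well over DNA-dye signal, with log2 residuals expressed as z-scores adjusted for cell count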
# Call rule: 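Under insulin, a gene counts as a hit if the average z-score of two replicates lies above 2.5 or below -2.5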
# In all, the deposit lists about 23,000 reagents; shown is an unselected part of those with a known target gene and a result. Of all reagents, 98 (0.43%) are marked active. 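Only hit calls are given; the phospho-dAkt signals, z-scores and hit direction were not deposited.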 Names joined by + are all predicted targets of the reagent.
target,amplicon,call
CG2909,DRSC18241,inactive
CG14153,DRSC10155,inactive
CG14153,DRSC22595,inactive
"E(spl)mdelta-HLH (Enhancer of split mdelta, helix-loop-helix)",DRSC16698,inactive
CG13713,DRSC08322,inactive
ben (bendless),DRSC20310,inactive
ben (bendless),DRSC21261,inactive
CG31937,DRSC00514,inactive
Polr2J (RNA polymerase II subunit J),DRSC02995,inactive
spidey,DRSC17932,inactive
PlexA (Plexin A),DRSC17220,inactive
CG1582,DRSC19732,inactive
CG14356,DRSC14819,inactive
conu (conundrum),DRSC07810,inactive
Gapdh1 (Glyceraldehyde 3 phosphate dehydrogenase 1),DRSC07433,inactive
HPS4 (Hermansky-Pudlak Syndrome 4),DRSC06906,inactive
CG10165,DRSC02017,inactive
Ir20a (Ionotropic receptor 20a),DRSC20506,inactive
AttA (Attacin-A),DRSC05926,inactive
Alp9 (Alkaline phosphatase 9),DRSC10486,inactive
CG6415,DRSC02954,inactive
Paip1 (Poly(A) binding protein interacting protein 1),DRSC07302,inactive
CG6179,DRSC19973,inactive
CG10405,DRSC14238,inactive
CG30203,DRSC06690,inactive
CG14817,DRSC18547,inactive
VGlut (Vesicular glutamate transporter),DRSC00733,inactive
VGlut (Vesicular glutamate transporter),DRSC21821,inactive
msl-3 (male-specific lethal 3),DRSC11371,inactive
CG3225,DRSC00578,inactive
Vha68-1 (Vacuolar H[+] ATPase 68kD subunit 1),DRSC03470,inactive
en (engrailed),DRSC07609,inactive
eEFSec,DRSC04571,inactive
Tlk (Tousled-like kinase),DRSC17731,inactive
Tlk (Tousled-like kinase),DRSC17835,inactive
Tlk (Tousled-like kinase),DRSC22924,inactive
Tlk (Tousled-like kinase),DRSC22926,inactive
Tlk (Tousled-like kinase),DRSC22938,inactive
cass (cassowary),DRSC01850,inactive
Urm1 (Ubiquitin-related modifier 1),DRSC22941,inactive
Shark (SH2 ankyrin repeat kinase),DRSC07680,inactive
CG13840,DRSC14690,inactive
ths (thisbe),DRSC06153,inactive
Cyp4p2 (Cytochrome P450 4p2),DRSC07373,inactive
CG32212 + hpRNA:CR33940,DRSC09618,inactive
mtsh (mitoshell),DRSC03070,inactive
CG32700,DRSC17857,inactive
CG32700,DRSC17858,inactive
lambdaTry,DRSC06137,inactive
CG14069,DRSC02372,inactive
CG15347,DRSC18031,inactive
CG31704,DRSC22118,inactive
CG5556,DRSC00687,inactive
CG4218,DRSC01939,inactive
CadN2 + CG42830,DRSC03062,inactive
CadN2 + CG42830,DRSC03063,inactive
CadN2 + CG42830,DRSC03064,inactive
CG13958 (retired record),DRSC02300,inactive
in (inturned),DRSC11888,inactive
MED21 (Mediator complex subunit 21),DRSC20932,inactive
Amy-p (Amylase proximal),DRSC06786,inactive
"ATPsynbetaL (ATP synthase, beta subunit-like)",DRSC10503,inactive
Gr58a (Gustatory receptor 58a),DRSC03910,inactive
IleRS (Isoleucyl-tRNA synthetase),DRSC11667,inactive
sp3 (spermathreecae),DRSC16354,inactive
Chro (Chromator),DRSC11630,inactive
CG12236,DRSC17830,inactive
CG12236,DRSC17831,inactive
CG7289,DRSC00697,inactive
CG3819,DRSC10378,inactive
CG13036 (retired record),DRSC09916,inactive
Got1 (Glutamate oxaloacetate transaminase 1),DRSC07177,inactive
SA1 (Stromalin 1),DRSC03424,inactive
CG30098,DRSC05605,inactive
ds (dachsous),DRSC00815,inactive
Cyp313a2 (Cytochrome P450 313a2),DRSC16625,inactive
Lcch3 (Ligand-gated chloride channel homolog 3),DRSC20257,inactive
Lcch3 (Ligand-gated chloride channel homolog 3),DRSC22175,inactive
MED1 (Mediator complex subunit 1),DRSC11808,inactive
dpr2 (defective proboscis extension response 2),DRSC02370,inactive
dpr2 (defective proboscis extension response 2),DRSC02371,inactive
CG5850,DRSC02905,inactive
CG3999,DRSC15534,inactive
Hmt4-20 (Histone methyltransferase 4-20),DRSC18482,inactive
nyo (nyobe),DRSC15029,inactive
nyo (nyobe),DRSC15030,inactive
CG33340,DRSC14615,inactive
pkaap,DRSC01925,inactive
CG14070,DRSC02373,inactive
CG4230,DRSC02740,inactive
"MetRS-m (Methionyl-tRNA synthetase, mitochondrial)",DRSC16443,inactive
"MetRS-m (Methionyl-tRNA synthetase, mitochondrial)",DRSC16515,inactive
CG12693,DRSC17882,inactive
Npc2d (Niemann-Pick type C-2d),DRSC14551,inactive
Hsp70Bb + Hsp70Bbb,DRSC15885,inactive
CG31219,DRSC15140,inactive
CG7896,DRSC16335,inactive
Obp51a (Odorant-binding protein 51a),DRSC22412,inactive
"Alg12 (Alg12 alpha-1,6-mannosyltransferase)",DRSC16416,inactive
CG43999,DRSC14605,inactive
CG12994,DRSC19192,inactive
CG12994,DRSC19514,inactive
CG14135,DRSC10140,inactive
E(Pc) (Enhancer of Polycomb),DRSC05281,inactive
E(Pc) (Enhancer of Polycomb),DRSC07408,inactive
trbd (trabid),DRSC16494,inactive
CG9578,DRSC20694,inactive
EndoG (Endonuclease G),DRSC07292,inactive
EndoG (Endonuclease G),DRSC22746,inactive
CG4611,DRSC10434,inactive
dpr7 (defective proboscis extension response 7),DRSC17109,inactive
Tsp42A (Tetraspanin 42A),DRSC04862,inactive
CG33282,DRSC00422,inactive
mgr (merry-go-round),DRSC16099,inactive
CG13423,DRSC06386,inactive
PolA2 (DNA polymerase alpha subunit 2),DRSC16641,inactive
CG30458,DRSC06660,inactive
sxc (super sex combs),DRSC04911,inactive
CG12093,DRSC08252,inactive
CG15597,DRSC12283,inactive
Cbs (Cystathionine beta-synthase),DRSC20553,inactive
CG15282,DRSC22620,inactive
p47,DRSC06046,inactive
CycY (Cyclin Y),DRSC02420,inactive
CG17002,DRSC04978,inactive
Su(var)3-7 (Suppressor of variegation 3-7),DRSC16872,inactive
mei-38 (meiotic 38),DRSC18564,inactive
CG31949,DRSC00110,inactive
CG18449,DRSC06754,inactive
mrva (minerva),DRSC11009,inactive
mrva (minerva),DRSC21842,inactive
beta4GalT7 (beta-4-galactosyltransferase 7),DRSC14385,inactive
Pkn (Protein kinase N),DRSC06809,inactive
Pkn (Protein kinase N),DRSC06810,inactive
Gr47b (Gustatory receptor 47b),DRSC05275,inactive
CG15124,DRSC06546,inactive
SppL (Signal peptide peptidase-like),DRSC15228,inactive
CG1304,DRSC20494,inactive
CG6567,DRSC16066,inactive
mdlc (midlife crisis),DRSC15690,inactive
BomS3 (Bomanin Short 3),DRSC21458,inactive
CG42534,DRSC14722,inactive
CG42534,DRSC14759,inactive
CG42534,DRSC16072,inactive
Sulf1 (Sulfated),DRSC16874,inactive
bcn92,DRSC18741,inactive
CG3534,DRSC15494,inactive
CG17233,DRSC10259,inactive
CG1529,DRSC20515,inactive
U2af50 (U2 small nuclear riboprotein auxiliary factor 50),DRSC20297,inactive
U2af50 (U2 small nuclear riboprotein auxiliary factor 50),DRSC22867,inactive
p24-1 (p24-related-1),DRSC19827,inactive
Chd3,DRSC11114,inactive
Acp26Ab (Accessory gland protein 26Ab),DRSC01856,inactive
mu2 (mutator 2),DRSC08726,inactive
mu2 (mutator 2),DRSC21534,inactive
Ubc84D (Ubiquitin conjugating enzyme 84D),DRSC12610,inactive
CG33322,DRSC03204,inactive
CG17047,DRSC06648,inactive
Unc-115b + p24-2,DRSC16492,inactive
CG18746,DRSC15383,inactive
D12,DRSC03311,inactive
CG14990,DRSC08449,inactive
Egfrap (EGFR adaptor protein),DRSC09963,inactive
Egfrap (EGFR adaptor protein),DRSC09964,inactive
dom (domino),DRSC04558,inactive
dom (domino),DRSC04559,inactive
svr (silver),DRSC17293,inactive
svr (silver),DRSC18841,inactive
CG17493,DRSC03798,inactive
MCTS1 (Malignant T cell amplified sequence 1),DRSC18393,inactive
tna (tonalli),DRSC09053,inactive
tna (tonalli),DRSC10937,inactive
CG1722,DRSC20547,inactive
CG14450,DRSC11707,inactive
Toll-7,DRSC07563,inactive
wech,DRSC06606,inactive
Bhmt (Betaine-homocysteine S-methyltransferase),DRSC02079,inactive
CG14024,DRSC00868,inactive
CG14024,DRSC02354,inactive
LysD + LysB + LysC (retired record),DRSC21249,inactive
Orai,DRSC05684,inactive
Orai,DRSC22061,inactive
RabGGTb (Rab geranylgeranyltransferase subunit beta),DRSC00804,inactive
CG6753,DRSC16108,inactive
CG4884,DRSC15671,inactive
l(1)G0020 (lethal (1) G0020),DRSC18198,inactive
CG1943,DRSC12576,inactive
CG13800 (retired record),DRSC08334,inactive
CG4168,DRSC01446,inactive
CG4168,DRSC01447,active
CG4168,DRSC01933,inactive
CG4168,DRSC21319,inactive
CG4168,DRSC22789,inactive
Tbp (TATA binding protein),DRSC04662,inactive
CG4069,DRSC10396,inactive
phtf,DRSC05023,inactive
CG12825,DRSC06174,inactive
eya (eyes absent),DRSC03510,inactive
CG17168,DRSC20904,inactive

Records above called active (1):
target,amplicon,call
CG4168,DRSC01447,active
